Test results: publication PMC9106297, “Structure of a TRAPPII-Rab11 activation intermediate reveals GTPase substrate selection mechanisms” (Science Advances, 2022)
No constants are given. Whether binding was seen depends on the method and setting. Some binding calls cover weakened binding; strength is not graded here. For some of these results: Tags and fused reporters may be left off the sequences shown.

Sequences of proteins named here, by UniProt entry; tags and fusion partners are left off. A change or cut given only in a name is not applied to a line headed by its entry.
UniProt P36149: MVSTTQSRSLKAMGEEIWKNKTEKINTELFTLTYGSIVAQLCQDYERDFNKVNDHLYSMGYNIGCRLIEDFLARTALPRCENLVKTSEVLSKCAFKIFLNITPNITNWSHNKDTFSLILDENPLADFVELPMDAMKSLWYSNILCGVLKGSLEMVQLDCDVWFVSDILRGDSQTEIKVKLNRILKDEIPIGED
UniProt Q03660: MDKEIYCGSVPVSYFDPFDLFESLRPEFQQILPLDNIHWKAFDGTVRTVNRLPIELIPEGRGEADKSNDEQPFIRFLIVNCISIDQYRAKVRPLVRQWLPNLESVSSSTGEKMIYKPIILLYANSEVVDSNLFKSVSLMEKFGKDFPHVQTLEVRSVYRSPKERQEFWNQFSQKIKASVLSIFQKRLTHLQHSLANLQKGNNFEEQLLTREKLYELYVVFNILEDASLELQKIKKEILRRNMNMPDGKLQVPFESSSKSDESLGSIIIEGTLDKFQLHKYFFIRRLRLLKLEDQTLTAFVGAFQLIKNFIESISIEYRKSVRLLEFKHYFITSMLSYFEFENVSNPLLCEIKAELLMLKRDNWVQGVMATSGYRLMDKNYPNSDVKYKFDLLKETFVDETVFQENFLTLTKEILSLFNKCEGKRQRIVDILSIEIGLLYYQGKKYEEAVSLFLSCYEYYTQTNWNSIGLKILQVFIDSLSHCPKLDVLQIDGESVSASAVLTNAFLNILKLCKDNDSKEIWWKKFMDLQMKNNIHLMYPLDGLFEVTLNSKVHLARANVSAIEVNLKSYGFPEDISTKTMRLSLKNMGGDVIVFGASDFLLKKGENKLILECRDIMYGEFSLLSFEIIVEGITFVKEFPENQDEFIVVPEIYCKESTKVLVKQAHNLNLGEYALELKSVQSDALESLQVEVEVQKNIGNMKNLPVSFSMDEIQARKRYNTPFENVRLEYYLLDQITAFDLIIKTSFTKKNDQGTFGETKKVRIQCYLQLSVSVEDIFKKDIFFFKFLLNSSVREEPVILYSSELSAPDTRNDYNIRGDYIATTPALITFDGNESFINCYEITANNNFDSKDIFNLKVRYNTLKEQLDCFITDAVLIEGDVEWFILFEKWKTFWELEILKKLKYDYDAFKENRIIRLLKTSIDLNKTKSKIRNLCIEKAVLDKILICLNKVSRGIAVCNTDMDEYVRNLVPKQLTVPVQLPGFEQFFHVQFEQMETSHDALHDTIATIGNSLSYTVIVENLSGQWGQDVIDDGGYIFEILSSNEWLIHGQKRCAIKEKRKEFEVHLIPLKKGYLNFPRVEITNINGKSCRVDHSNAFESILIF
UniProt P46944: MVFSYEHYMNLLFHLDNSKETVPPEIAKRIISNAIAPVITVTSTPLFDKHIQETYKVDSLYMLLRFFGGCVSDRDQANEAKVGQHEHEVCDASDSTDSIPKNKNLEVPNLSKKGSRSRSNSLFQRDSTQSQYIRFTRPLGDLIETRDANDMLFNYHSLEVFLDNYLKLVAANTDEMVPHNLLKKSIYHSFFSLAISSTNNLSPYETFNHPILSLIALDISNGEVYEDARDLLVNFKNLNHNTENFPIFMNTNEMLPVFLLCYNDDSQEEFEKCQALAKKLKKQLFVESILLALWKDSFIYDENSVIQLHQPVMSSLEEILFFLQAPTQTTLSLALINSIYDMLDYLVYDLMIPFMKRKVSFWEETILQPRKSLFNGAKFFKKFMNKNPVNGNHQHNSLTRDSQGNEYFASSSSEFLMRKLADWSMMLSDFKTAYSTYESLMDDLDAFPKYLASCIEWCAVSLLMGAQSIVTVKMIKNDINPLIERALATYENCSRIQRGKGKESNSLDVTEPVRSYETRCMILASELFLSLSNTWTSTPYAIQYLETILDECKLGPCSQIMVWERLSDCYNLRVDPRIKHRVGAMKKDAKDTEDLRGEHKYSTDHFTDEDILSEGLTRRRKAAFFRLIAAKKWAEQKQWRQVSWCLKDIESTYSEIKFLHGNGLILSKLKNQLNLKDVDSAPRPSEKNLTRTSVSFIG

Assays:
[1] = target: T1, mRFPmars-Rab11/Ypt32(D129N) HVD truncation, residues 208 to 215 removed (GRab-IT bait) (S. cerevisiae) (UniProt P51996); assay: GRab-IT (GEF-Rab Interaction Test), ectopic localization assay by fluorescence microscopy; living yeast; nucleotide-free mRFPmars-Rab baits anchored on the mitochondrial membrane by the Fis1 transmembrane domain; recruitment of the mNeonGreen-tagged GEF (Trs130 or Trs85) quantified by Manders overlap, >=30 cells; cells grown at 30°C
T1 sequence: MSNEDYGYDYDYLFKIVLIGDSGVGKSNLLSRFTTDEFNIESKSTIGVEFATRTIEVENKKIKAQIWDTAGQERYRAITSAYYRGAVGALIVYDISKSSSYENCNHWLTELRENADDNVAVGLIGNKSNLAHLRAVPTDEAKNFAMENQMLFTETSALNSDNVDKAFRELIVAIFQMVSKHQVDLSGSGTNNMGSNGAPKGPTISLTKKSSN

[2] = target: T2, mRFPmars-Rab11/Ypt32(D129N) with the Fis1 transmembrane domain (nucleotide-free GRab-IT bait, 'wild type') (S. cerevisiae) (UniProt P51996); assay: as above
T2 sequence: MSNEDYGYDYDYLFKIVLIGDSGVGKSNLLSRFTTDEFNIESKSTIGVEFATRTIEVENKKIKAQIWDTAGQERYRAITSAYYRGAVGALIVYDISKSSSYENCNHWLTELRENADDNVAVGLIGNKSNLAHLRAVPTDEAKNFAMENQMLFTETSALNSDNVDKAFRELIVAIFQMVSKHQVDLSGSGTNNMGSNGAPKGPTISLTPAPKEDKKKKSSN

[3] = target: TRAPPII complex (transport protein particle II), endogenous, purified from yeast (S. cerevisiae) (UniProt P36149); assay: cryo-EM structure; TRAPPII purified from yeast, incubated with tenfold molar excess of Rab11/Ypt32-7xHis and calf intestine alkaline phosphatase at 4°C overnight (nucleotide-free Rab), complex purified on Calmodulin Sepharose and by SEC; 10 mM tris (pH 8.0), 150 mM NaCl, 0.1% CHAPS, 1 mM Mg acetate, 1 mM dithiothreitol; single-particle cryo-EM; both purified

## TRAPPII complex in yeast cells, with Trs130-mNeonGreen (from UniProt Q03660 1-1102; Q04183 1-1289; P32893 1-560; P32613 1-152; P36149 1-193; Q03630 1-159; P38334 1-175; Q03784 1-219; Q03337 1-283; Q99394 1-268)
[1]
  binding: no binding
[2]
  binding: binds

## TRAPPIII complex in yeast cells, with Trs85-mNeonGreen (from UniProt P46944 1-698; P36149 1-193; Q03630 1-159; P38334 1-175; Q03784 1-219; Q03337 1-283; Q99394 1-268)
[2]
  binding: no binding

B1: Rab11/Ypt32-7xHis (natural protein, S. cerevisiae, UniProt P51996 1-220, looked up)
chain: MSNEDYGYDYDYLFKIVLIGDSGVGKSNLLSRFTTDEFNIESKSTIGVEFATRTIEVENKKIKAQIWDTAGQERYRAITSAYYRGAVGALIVYDISKSSSYENCNHWLTELRENADDNVAVGLIGNKSDLAHLRAVPTDEAKNFAMENQMLFTETSALNSDNVDKAFRELIVAIFQMVSKHQVDLSGSGTNNMGSNGAPKGPTISLTPAPKEDKKKKSSN
notes: Ypt32 (yeast Rab11 paralog), S. cerevisiae; the C-terminal cysteines (residues 221 and 222) were substituted with the 7xHis tag; Made nucleotide-free with calf intestine alkaline phosphatase for the complex with TRAPPII; also called nucleotide-free Rab11/Ypt32; not shown: GST, N-terminal, cleaved; 7xHis, C-terminal, kept
[3]
  binding: binds
